Source: paper PMC4476799, “Englerin A Agonizes the TRPC4/C5 Cation Channels to Inhibit Tumor Cell Line Proliferation” (PLoS ONE, 2015)
This continues a long series; more values of the same kind are listed elsewhere.

System: cancer cell lines from the cancer cell line encyclopedia (CCLE)
Assay: Cell line profiling (CLiP) proliferation experiment
Assay type: cell-based
Set-up: ACTIVITY_AREA: scale not given here; AMAX: unit not given here
Description: Compound profiling experiment and data analysis was performed as previously described. Data was imported and plotted using the Tibco Spotfire DXP application. Lines were categorized as sensitive, intermediate and refractory as follows: Amax<-40 & Inflection Point <2 ~ Sensitive, Amax>-20 & Inflection Point >10 ~ Refractory, all else were called Intermediate. Cancer Cell line HG-U133 Plus 2 data was processed and normalized as described. […] Five sets of refractory cell lines were generated from the pool of refractory cell lines trying to match the lineage composition of the set of sensitive cell lines. The limma package was used as previously described to perform the statistical comparison.

[1] = 697 (haematopoietic_and_lymphoid_tissue)
[2] = CAL-54, kidney, renal_cell_carcinoma
[3] = CMK-11-5 (haematopoietic_and_lymphoid_tissue)
[4] = COLO 775 (haematopoietic_and_lymphoid_tissue)

CC(C)[C@@]12C[C@@H](O)[C@@](C)(O1)[C@@H]1CC[C@@H](C)[C@H]1[C@@H]2OC(=O)/C=C/c1ccccc1 [Englerin B]
ACTIVITY_AREA (22Rv1 (prostate)): 30.61
AMAX (22Rv1 (prostate)): -53.2
RESPONSE (22Rv1 (prostate)): INTERMEDIATE
ACTIVITY_AREA [1]: 47.18
AMAX [1]: -80.98
RESPONSE [1]: INTERMEDIATE
ACTIVITY_AREA (769-P (kidney)): 13.6
AMAX (769-P (kidney)): -49.16
RESPONSE (769-P (kidney)): INTERMEDIATE
ACTIVITY_AREA (8305C (thyroid)): 19.13
AMAX (8305C (thyroid)): -42.05
RESPONSE (8305C (thyroid)): INTERMEDIATE
ACTIVITY_AREA (A4/Fuk cells): 67.88
AMAX (A4/Fuk cells): -69.84
RESPONSE (A4/Fuk cells): INTERMEDIATE
ACTIVITY_AREA (A101D cells): 15.59
AMAX (A101D cells): -37.08
RESPONSE (A101D cells): INTERMEDIATE
ACTIVITY_AREA (A549 cells): 37.23
AMAX (A549 cells): -58.53
RESPONSE (A549 cells): INTERMEDIATE
ACTIVITY_AREA (A2058 cells): 56.89
AMAX (A2058 cells): -70.85
RESPONSE (A2058 cells): INTERMEDIATE
ACTIVITY_AREA (A2780 cells): 23.16
AMAX (A2780 cells): -68.66
RESPONSE (A2780 cells): INTERMEDIATE
ACTIVITY_AREA (A-253 cells): 47.22
AMAX (A-253 cells): -88.59
RESPONSE (A-253 cells): INTERMEDIATE
ACTIVITY_AREA (A-375 cells): 20.24
AMAX (A-375 cells): -2.69
RESPONSE (A-375 cells): REFRACTORY
ACTIVITY_AREA (A-673 cells): 9.6
AMAX (A-673 cells): -13.83
RESPONSE (A-673 cells): REFRACTORY
ACTIVITY_AREA (ABC-1 cells): 13.47
AMAX (ABC-1 cells): -42.78
RESPONSE (ABC-1 cells): INTERMEDIATE
ACTIVITY_AREA (ACC-MESO-1 cells): 116.48
AMAX (ACC-MESO-1 cells): -48.31
RESPONSE (ACC-MESO-1 cells): INTERMEDIATE
ACTIVITY_AREA (ACHN cells): 59.56
AMAX (ACHN cells): -29.85
RESPONSE (ACHN cells): INTERMEDIATE
ACTIVITY_AREA (AMO-1 cells): 38.41
AMAX (AMO-1 cells): -82.44
RESPONSE (AMO-1 cells): INTERMEDIATE
ACTIVITY_AREA (AU565 cells): 45.07
AMAX (AU565 cells): -69.47
RESPONSE (AU565 cells): INTERMEDIATE
ACTIVITY_AREA (BDCM cells): 30.98
AMAX (BDCM cells): -76.17
RESPONSE (BDCM cells): INTERMEDIATE
ACTIVITY_AREA (BHY cells): 30
AMAX (BHY cells): -53.57
RESPONSE (BHY cells): INTERMEDIATE
ACTIVITY_AREA (BICR 6 cells): 60.16
AMAX (BICR 6 cells): -61.58
RESPONSE (BICR 6 cells): INTERMEDIATE
ACTIVITY_AREA (BICR 16 cells): 117.1
AMAX (BICR 16 cells): -74.26
RESPONSE (BICR 16 cells): INTERMEDIATE
ACTIVITY_AREA (BICR 22 cells): 28.9
AMAX (BICR 22 cells): -66.9
RESPONSE (BICR 22 cells): INTERMEDIATE
ACTIVITY_AREA (BL-41 cells): 23.12
AMAX (BL-41 cells): -91.54
RESPONSE (BL-41 cells): INTERMEDIATE
ACTIVITY_AREA (BT-20 cells): 21.1
AMAX (BT-20 cells): -41.63
RESPONSE (BT-20 cells): INTERMEDIATE
ACTIVITY_AREA (BV-173 cells): 54.37
AMAX (BV-173 cells): -88.99
RESPONSE (BV-173 cells): INTERMEDIATE
ACTIVITY_AREA (BxPC-3 (pancreas)): 22.8
AMAX (BxPC-3 (pancreas)): -60.21
RESPONSE (BxPC-3 (pancreas)): INTERMEDIATE
ACTIVITY_AREA (C32 cells): 19.38
AMAX (C32 cells): -36.76
RESPONSE (C32 cells): INTERMEDIATE
ACTIVITY_AREA (CAL-29 (urinary_tract)): 38.07
AMAX (CAL-29 (urinary_tract)): -71.25
RESPONSE (CAL-29 (urinary_tract)): INTERMEDIATE
ACTIVITY_AREA (CAL-51 cells): 23.14
AMAX (CAL-51 cells): -39.24
RESPONSE (CAL-51 cells): INTERMEDIATE
ACTIVITY_AREA [2]: 36.45
AMAX [2]: -46.52
RESPONSE [2]: INTERMEDIATE
ACTIVITY_AREA (CAL-54 cells): 36.45
AMAX (CAL-54 cells): -46.52
RESPONSE (CAL-54 cells): INTERMEDIATE
ACTIVITY_AREA (CAL-78, bone, dedifferentiated): 32.55
AMAX (CAL-78, bone, dedifferentiated): -32.34
RESPONSE (CAL-78, bone, dedifferentiated): INTERMEDIATE
ACTIVITY_AREA (CAL-78 cells): 32.55
AMAX (CAL-78 cells): -32.34
RESPONSE (CAL-78 cells): INTERMEDIATE
ACTIVITY_AREA (CAL-85-1, breast, NS): 10.29
AMAX (CAL-85-1, breast, NS): -39.9
RESPONSE (CAL-85-1, breast, NS): INTERMEDIATE
ACTIVITY_AREA (CAL-85-1 cells): 10.29
AMAX (CAL-85-1 cells): -39.9
RESPONSE (CAL-85-1 cells): INTERMEDIATE
ACTIVITY_AREA (CAL-120 cells): 23.97
AMAX (CAL-120 cells): -51.61
RESPONSE (CAL-120 cells): INTERMEDIATE
ACTIVITY_AREA (CAMA-1 (breast)): 21.9
AMAX (CAMA-1 (breast)): -43.81
RESPONSE (CAMA-1 (breast)): INTERMEDIATE
ACTIVITY_AREA (CAS-1 cells): 8.27
AMAX (CAS-1 cells): -27.8
RESPONSE (CAS-1 cells): INTERMEDIATE
ACTIVITY_AREA (CCK-81 cells): 19.43
AMAX (CCK-81 cells): -61.47
RESPONSE (CCK-81 cells): INTERMEDIATE
ACTIVITY_AREA (CCRF-CEM cells): 12.38
AMAX (CCRF-CEM cells): -48.26
RESPONSE (CCRF-CEM cells): INTERMEDIATE
ACTIVITY_AREA (CFPAC-1 (pancreas)): 25.86
AMAX (CFPAC-1 (pancreas)): -50.08
RESPONSE (CFPAC-1 (pancreas)): INTERMEDIATE
ACTIVITY_AREA (CHL-1 cells): 19.98
AMAX (CHL-1 cells): -60.11
RESPONSE (CHL-1 cells): INTERMEDIATE
ACTIVITY_AREA (CHP-212 cells): 33.44
AMAX (CHP-212 cells): -55.99
RESPONSE (CHP-212 cells): INTERMEDIATE
ACTIVITY_AREA (CI-1 cells): 19.7
AMAX (CI-1 cells): 16.67
RESPONSE (CI-1 cells): REFRACTORY
ACTIVITY_AREA (CMK cells): 61.63
AMAX (CMK cells): -8.06
RESPONSE (CMK cells): REFRACTORY
ACTIVITY_AREA [3]: 101.26
AMAX [3]: -51.95
RESPONSE [3]: INTERMEDIATE
ACTIVITY_AREA (CML-T1 cells): 42.33
AMAX (CML-T1 cells): -73.13
RESPONSE (CML-T1 cells): INTERMEDIATE
ACTIVITY_AREA (COLO 205 cells): 33.02
AMAX (COLO 205 cells): -61.38
RESPONSE (COLO 205 cells): INTERMEDIATE
ACTIVITY_AREA (COLO 668 cells): 28.83
AMAX (COLO 668 cells): -55.03
RESPONSE (COLO 668 cells): INTERMEDIATE
ACTIVITY_AREA (COLO 741 cells): 12.88
AMAX (COLO 741 cells): -37.55
RESPONSE (COLO 741 cells): INTERMEDIATE
ACTIVITY_AREA [4]: 59.22
AMAX [4]: -93.44
RESPONSE [4]: INTERMEDIATE
ACTIVITY_AREA (COLO 792 cells): 11.82
AMAX (COLO 792 cells): -22.14
RESPONSE (COLO 792 cells): INTERMEDIATE
ACTIVITY_AREA (COLO 829 cells): 31.7
AMAX (COLO 829 cells): -7.17
RESPONSE (COLO 829 cells): REFRACTORY
ACTIVITY_AREA (COLO-320 (large_intestine)): 102.29
AMAX (COLO-320 (large_intestine)): -70.01
RESPONSE (COLO-320 (large_intestine)): INTERMEDIATE
ACTIVITY_AREA (COLO-680N (oesophagus)): 26.11
AMAX (COLO-680N (oesophagus)): -34.59
RESPONSE (COLO-680N (oesophagus)): INTERMEDIATE
ACTIVITY_AREA (COLO-699 (lung)): 153.56
AMAX (COLO-699 (lung)): -71.88
RESPONSE (COLO-699 (lung)): INTERMEDIATE
ACTIVITY_AREA (COLO-704 cells): 138.81
AMAX (COLO-704 cells): -63.22
RESPONSE (COLO-704 cells): INTERMEDIATE
ACTIVITY_AREA (COR-L23 (lung)): 32.4
